## Library screen at single concentrations

Data taken from ChEMBL document CHEMBL3988442, “University of Dundee, Small-Polar-MMV Screening Library” (2021).

Values are the deposited “Percent Effect”, in %.
The record does not define 0% and 100%; most values in the screen are far below 50% and negative numbers occur (in some assays of this library far below -100).
The compounds are a random part of those screened.

A: 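Whole-parasite assay of Trypanosoma brucei over 72 hours; the read-out is not stated. Compounds at 30 µM. The record gives no direction; compounds that gave an IC50 in retests scored well above the rest, so higher reads as stronger inhibition. Values scatter widely below zero; nearly all retest evidence comes from the higher of the two concentrations used. Of about 64,000 compounds tested this way, about 940 (1.5%) reached 50% or more in at least one test.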
B: 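Cell assay of Leishmania donovani living inside macrophages; the read-out is not stated. Concentration: 30 µM. The record gives no direction; compounds that gave an IC50 in retests scored well above the rest, so higher reads as stronger inhibition. About 69,000 compounds were tested under these conditions; 1.5% (about 1,000) showed 50% or more at least once.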

- Cc1ccc(S(C)(=O)=O)cc1NCC(=O)NCCC1=CCCCC1 : A: -28.7%; B: -5.01%
- Cc1ccccc1CC1(CO)CCCN(c2ncccc2C#N)C1 (configuration not stated) : A: -1.785%; B: 15.87%
- Cc1cnn(CC2CCCCN2CCC(=O)Nc2cc(C)on2)c1 (configuration not stated) : A: 17.15%; B: -2.732%
- COc1ccc(F)cc1CN1CCCC1Cn1nc(C)nc1C (configuration not stated) : B: 0.7979%
- CC(CCS(C)(=O)=O)NC(=O)NCc1ccc2ccccc2c1 (configuration not stated) : A: -7.502%; B: -9.972%
- CCn1nc(C)c(C(=O)N2C[C@@H](CN(C)C)[C@@H](CO)C2)c1C : A: -33.63%; B: -1.075%
- COCC(=O)NCCSCCOc1cccc(Br)c1 : A: -36.69%; B: -1.475%
- [H][C@@]12C[C@@H](OC)C[C@]1([H])CN(C(=O)c1n[nH]c3c1CCCC3)C2 : A: -10.11%; B: -39.79%
- c1csc(CCN2CCCC2c2noc(C3CC3)n2)c1 (configuration not stated) : A: -15.94%; B: 12.87%
- CCS(=O)(=O)c1ncc(CN(C)Cc2ccccc2OC)n1CCOC : A: -10.46%; B: 12.2%
- Cc1cccc(C2(O)CCN(C(=O)c3ccccn3)CC2)c1C : A: -8.543%; B: 2.073%
- [H][C@@]12NC(=O)N[C@@H](c3ccccc3C(=O)O)[C@]1([H])CCCO2 : A: -18.79%; B: 12.51%
- O=c1cc(CNCc2ccc3c(c2)OCO3)nc2ccccn12 : A: -19.03%; B: 23.57%
- O=C1OCCCN1Cc1nc(-c2ccncc2)no1 : A: -3.013%; B: 13.81%
- COc1ccc(CN2CCN(C(C)c3nc(C4CC4)no3)CC2)cc1 (configuration not stated) : A: -11.33%; B: 36.36%
- O=C(c1csc(Br)c1)N1CCCC(n2ccnc2)C1 (configuration not stated) : A: 25.13%; B: -0.9105%
- N#CC1(NC(=O)c2ccc(-c3nc(C4CC4)n[nH]3)cc2)CCSC1 (configuration not stated) : A: -28.14%; B: -15.92%
- CN(Cc1coc(-c2ccccc2)n1)CC1CCCN1c1cccnn1 (configuration not stated) : A: -1.174%; B: -22%
- O=S1(=O)c2cccnc2OC(Cc2ccccc2)CN1CC1CC1 (configuration not stated) : A: 4.997%; B: -17.81%
- CCc1noc(C(C)Sc2nnc(C3CC3)n2CC(N)=O)n1 (configuration not stated) : A: 1.192%; B: 14.27%
- CC(C)N1C(=O)CN(CCCO)CC1(C)C : B: 2.319%
- CS(=O)(=O)NCCCNC(=O)c1cccc(-n2cccc2)c1 : A: 20.15%; B: 18.3%
- Cc1cc(C)c(OCC(=O)NS(=O)(=O)c2cccnc2)c(C)c1 : A: 8.217%; B: -4.587%
- O=C(O)C(F)(F)F.O=C(O)C(F)(F)F.O=C(O)C(F)(F)F.[H][C@@]12CCCO[C@]1([H])[C@H](OCc1ccccn1)CN2Cc1scnc1C : A: -119.7%; B: -22.85%
- CC(Nc1cccc(CN2CCOC2=O)c1)C(=O)NC(=O)NC(C)(C)C (configuration not stated) : A: 2.332%; B: 17.89%

Once more, the final 2:

With O=C(O)C(F)(F)F.O=C(O)C(F)(F)F.O=C(O)C(F)(F)F.[H][C@@]12CCCO[C@]1([H])[C@H](OCc1ccccn1)CN2Cc1scnc1C the screen gave A: -119.7%; B: -22.85%.
With CC(Nc1cccc(CN2CCOC2=O)c1)C(=O)NC(=O)NC(C)(C)C (configuration not stated) the screen gave A: 2.332%; B: 17.89%.